Experimental data as given in PMC6681339.
These are yes or no findings as the source states them, for the method shown. In cells and extracts the contact can be indirect. Some results given as binding are weak or reduced against the parent protein; the word gives no strength. Sequences can lack the tags named with a protein.

Protein sequences, listed by entry. Tags and fused reporters are not part of them. Residues count along the entry.
UniProt Q15843, residues 1-76: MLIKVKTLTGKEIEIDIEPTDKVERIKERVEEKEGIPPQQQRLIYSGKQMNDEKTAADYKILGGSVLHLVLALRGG

Molecular target: GST-NEDD8 (UniProt Q15843)
Experiment: pull-down; GST-ubiquitin, GST-NEDD8 or GST alone on beads incubated with lysates of HEK293 cells expressing GFP fusions (20 h post-transfection); blot with anti-GFP; only the target purified

B1: GFP-N4BP1 (amino acid fragment spanning residues 813–896 of N4BP1) (domain or fragment, UniProt O75113 813-896)
chain: TRIQGAPSSHWLPQQPHFPLLPALPSLQQNLPMPAQRSSAETNELREALLKIFPDSEQRLKIDQILVAHPYMKDLNALSAMVLD
  binding: binds weakly
